Measured data: PubChem BioAssay AID1259254 (NCATS, 2017)
The deposit covers about 59,000 reagents; shown is an unselected part. About 1,550 of all reagents (2.6%) were called active. 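G2 share is only a proxy for re-replication; each gene was hit by three separate siRNAs, and active genes were retested.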 A number with no mark means an inactive call. Reagents against one gene are numbered here. Not all columns of the deposit are shown. Not stated in the record: the amount of reagent.

Assay: 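Genome-wide screen for genes that prevent DNA re-replication in cancer cells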 (primary screen)
Cell system: human HCT116 colorectal cancer cells
Knock-down reagent: single siRNA against human genes
Timing: 3 days
Detection: 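Imaged Hoechst DNA stain sorts each cell into a cycle phase by DNA amount; per plate, G2 fraction set to 0% for non-targeting and 100% for GMNN siRNA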
Direction: G2 robust z-score and G2 cells, % of GMNN control: higher = more G2 cells, more excess DNA replication
Call rule: 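Active siRNAs have a G2 robust z of 5 or more median absolute deviations over the median, which in these data means about 38% or higher of GMNN control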

The opening 3 records as a preview:
{"gene knocked down": "RMND5B", "reagent": 1, "G2 robust z-score": -0.915, "G2 cells, % of GMNN control": -3.47}
{"gene knocked down": "RMND5B", "reagent": 2, "G2 robust z-score": 2.56, "G2 cells, % of GMNN control": 21}
{"gene knocked down": "RMND5B", "reagent": 3, "G2 robust z-score": 3.16, "G2 cells, % of GMNN control": 25.2}

The listing, from the first entry:
{"gene knocked down": "RMND5B", "reagent": 1, "G2 robust z-score": -0.915, "G2 cells, % of GMNN control": -3.47}
{"gene knocked down": "RMND5B", "reagent": 2, "G2 robust z-score": 2.56, "G2 cells, % of GMNN control": 21}
{"gene knocked down": "RMND5B", "reagent": 3, "G2 robust z-score": 3.16, "G2 cells, % of GMNN control": 25.2}
{"gene knocked down": "SERPINB8", "reagent": 1, "G2 robust z-score": 1.57, "G2 cells, % of GMNN control": 14}
{"gene knocked down": "SERPINB8", "reagent": 2, "G2 robust z-score": -1.44, "G2 cells, % of GMNN control": -7.15}
{"gene knocked down": "SERPINB8", "reagent": 3, "G2 robust z-score": -1.12, "G2 cells, % of GMNN control": -4.89}
{"gene knocked down": "RPL31P31", "reagent": 1, "G2 robust z-score": 1.38, "G2 cells, % of GMNN control": 12.7}
{"gene knocked down": "RPL31P31", "reagent": 2, "G2 robust z-score": -0.221, "G2 cells, % of GMNN control": 1.41}
{"gene knocked down": "RPL31P31", "reagent": 3, "G2 robust z-score": 2.68, "G2 cells, % of GMNN control": 21.8}
{"gene knocked down": "DDX60L", "reagent": 1, "G2 robust z-score": -0.0659, "G2 cells, % of GMNN control": 2.5}
{"gene knocked down": "DDX60L", "reagent": 2, "G2 robust z-score": 2.49, "G2 cells, % of GMNN control": 20.5}
{"gene knocked down": "DDX60L", "reagent": 3, "G2 robust z-score": 0.523, "G2 cells, % of GMNN control": 6.65}
{"gene knocked down": "APOBR", "reagent": 1, "G2 robust z-score": -1.07, "G2 cells, % of GMNN control": -4.59}
{"gene knocked down": "APOBR", "reagent": 2, "G2 robust z-score": -0.717, "G2 cells, % of GMNN control": -2.07}
{"gene knocked down": "APOBR", "reagent": 3, "G2 robust z-score": -1.04, "G2 cells, % of GMNN control": -4.38}
{"gene knocked down": "EVPLL", "reagent": 1, "G2 robust z-score": -0.44, "G2 cells, % of GMNN control": -0.127}
{"gene knocked down": "EVPLL", "reagent": 2, "G2 robust z-score": -1.32, "G2 cells, % of GMNN control": -6.29}
{"gene knocked down": "EVPLL", "reagent": 3, "G2 robust z-score": 1.19, "G2 cells, % of GMNN control": 11.3}
{"gene knocked down": "RILPL1", "reagent": 1, "G2 robust z-score": -0.681, "G2 cells, % of GMNN control": -1.83}
{"gene knocked down": "RILPL1", "reagent": 2, "G2 robust z-score": -0.658, "G2 cells, % of GMNN control": -1.66}
{"gene knocked down": "RILPL1", "reagent": 3, "G2 robust z-score": -0.566, "G2 cells, % of GMNN control": -1.02}
{"gene knocked down": "API5", "reagent": 1, "G2 robust z-score": -1.07, "G2 cells, % of GMNN control": -4.53}
{"gene knocked down": "API5", "reagent": 2, "G2 robust z-score": -1.04, "G2 cells, % of GMNN control": -4.32}
{"gene knocked down": "API5", "reagent": 3, "G2 robust z-score": 0.0959, "G2 cells, % of GMNN control": 3.64}
